Laboratory results reported in PubChem BioAssay AID1347075 (National Center for Advancing Translational Sciences (NCATS), 2019).
The campaign covered roughly 400,000 compounds. About 5,500 (1.4%) were called active. The shares of active, inactive and inconclusive entries below differ from those in the screen. Calls follow the shape of the dose curve; as a rule, active = well fitted cell-killing curve with a large enough effect; inconclusive = small, poorly fitted or top-dose-only effect, or effect the other way; inactive = flat fitted curve, though single readings scatter. Where the call is inconclusive, the potency comes from a doubtful curve fit.

Assay: qHTS assay for MDR1-selective chemotherapeutics: Primary screen using the parental adenocarcinoma cell KB-3-1; also: nearly all actives have a fitted effect of over 60% in size
Conditions: KB-3-1 viability, CellTiter-Glo ATP luminescence, 72 h; activity change, negative = cytotoxic: at 46.1 µM (top of the series)
Outline: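 Parental KB-3-1 adenocarcinoma cells in phenol-red-free DMEM with 10% FBS were pin-treated with compounds at several concentrations, incubated 72 h at 37 °C, and viability read by CellTiter-Glo luminescence; concentration-effect curves were fitted after normalization.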
% is scaled to controls: 0 for no effect and ±100 for the full control effect; potency is read from the fitted curve at half-maximal effect.

Compound | Potency | activity change, negative = cytotoxic
O=C(Nc1ccnn1C1CCN(CCCC2CCCC2)CC1)c1ccccc1Cl | inactive | 
CC(=O)OC1CCC2(C)C3=CCC4(C)C(C(C)=O)=CCC4C3CCC2C1 (centres undefined) | inconclusive: 18.4 µM [cytotoxic, single point] | 
CC(C)OCCCNc1nc(-c2ccccc2)nc2ccccc12 | inactive | 
Cc1nc2c(C(=O)NCCc3ccccc3)c[nH]n2c(=O)c1Cc1ccc(F)cc1Cl | inactive | 
O=C(C1CC(=O)N(c2ccc(F)cc2)C1)N1CCOCC1 (centres undefined) | inactive | 
Cc1ccc(OCC(=O)NNC(=O)c2ccccc2OCc2c(C)noc2C)cc1 | inconclusive: 25.9 µM [rising, single point] | 
COc1cccc(CN2CCN(C(=O)Nc3ccc([N+](=O)[O-])cc3)CC2)c1 | inconclusive: 29.1 µM [cytotoxic, single point] | 
CCc1ccc(NC(=O)N(Cc2cn(CC)c3ccccc23)C2CCCCC2)cc1 | inconclusive: 32.6 µM [cytotoxic, single point] | 
COc1ccc([C@H]2C[C@H](n3cc(COC(=O)c4ccccc4)nn3)[C@@H](O)CN2C(=O)C2CCCCC2)cc1 | inconclusive: 0.0092 µM [rising, full curve, poor fit] | 
Cc1ccc(C(=O)N(c2ccccc2)C2CC(C)N(C(=O)c3ccco3)c3ccccc32)cc1 (centres undefined) | inconclusive: 29.1 µM [cytotoxic, single point] | 
COc1ccc(OC)c(S(=O)(=O)ON2C(=O)c3ccccc3C2=O)c1 | inconclusive: 18.4 µM [cytotoxic, single point] | 
CC1CC(C)(C)NC(=S)N1CCC(=O)Nc1ccc2c(c1)OCCO2 (centres undefined) | active: 23.1 µM | 
CC(=O)N1c2ccc(S(=O)(=O)NCC3CCC(C(=O)Nc4ccc(F)cc4)CC3)cc2CC1C (centres undefined) | inconclusive: 20.6 µM [cytotoxic, single point] | 
Cc1nnc(SCC(=O)Nc2cccc(C(F)(F)F)c2)n1Cc1ccco1 | inconclusive: 9.2 µM [rising, partial curve] | 
CCn1cc([N+](=O)[O-])c(C(=O)N2N=C(c3ccc4ccccc4c3)CC2c2cc(Br)ccc2O)n1 (centres undefined) | inconclusive: 18.4 µM [cytotoxic, single point] | 
O=C(c1ccccc1)N1N=C(c2ccccc2)CC1(O)C(F)(F)F (centres undefined) | inactive | 
COc1cc2ccnc(C=O)c2cc1OC | inconclusive: 18.4 µM [cytotoxic, single point] | 
O=C(COc1ccc(F)cc1)NC1CC(=O)N(c2ccc3c(c2)OCCO3)C1 (centres undefined) | inactive | 
Cc1ccccc1CS(=O)(=O)c1snnc1C | inactive | 
CC(C)CCNC(=O)c1sc2ccc(S(=O)(=O)N3CCCCC3)cc2c1N | inconclusive: 23.1 µM [cytotoxic, single point] | 
CN(C)/C=N/C(=S)Nc1ccc(Cl)cc1 | inactive | 
COc1cc(CNCCc2ccccc2)cc(Cl)c1OCc1ccccc1 | inconclusive: 32.6 µM [cytotoxic, single point] | 
O=C(NCc1ccccc1)N1CCc2c(sc3c2CCCC3)C1c1ccccc1 (centres undefined) | inconclusive: 29.1 µM [cytotoxic, single point] | 

An excerpt of these results, as tab-separated lines.
Compound	Potency	activity change, negative = cytotoxic
CC(C)OCCCNc1nc(-c2ccccc2)nc2ccccc12	inactive	
CC1CC(C)(C)NC(=S)N1CCC(=O)Nc1ccc2c(c1)OCCO2 (centres undefined)	active: 23.1 µM	

Later entries

Compound | Potency | activity change, negative = cytotoxic
Cc1ccccc1OCCCSc1nc2ccccc2[nH]1 | inconclusive: 16.4 µM [cytotoxic, partial curve, poor fit] | 
CC12CCC(C(=NO)C1=NO)C2(C)C (centres undefined) | inconclusive: 29.1 µM [rising, single point] | 
Cc1cccc(-n2ncc3c(N4CCN(CCO)CC4)ncnc32)c1 | inactive | 
CC(C)c1ccc(NC(=S)NCCc2c[nH]c3ccccc23)cc1 | inconclusive: 29.1 µM [cytotoxic, single point] | 
O=C(NC(=S)Nc1ccc(S(=O)(=O)Nc2ncccn2)cc1)c1ccc(Br)cc1 | inactive | 
CCc1cccc(NC(=O)NC(=O)Cn2nnc(C(=O)OC)c2C(=O)OC)c1 | inconclusive: 10.3 µM [rising, partial curve, poor fit] | 
COc1ccc(NC(=S)N/N=C/c2cccn2Cc2ccc(F)cc2Cl)cc1 | inconclusive: 20.6 µM [cytotoxic, single point] | 
COc1cc(C(=O)NCC(c2ccccc2)N(C)C)ccc1OCc1c(C)noc1C (centres undefined) | inconclusive: 16.4 µM [cytotoxic, partial curve, poor fit] | 
Cc1cccc(NC(NC(=O)Cc2ccccc2)C(Cl)(Cl)Cl)c1 (centres undefined) | inconclusive: 9.2 µM [cytotoxic, partial curve, poor fit] | 
CN(C)S(=O)(=O)c1ccc(C(=O)NCCSc2ccc(Br)cc2)cc1 | inactive | 
COc1ccccc1N1CCN(c2nc3ccccn3c(=O)c2C=O)CC1 | inactive | 
Cc1cc(OC(C)C(=O)NCc2ccncc2)c2c(C)cc(=O)oc2c1 (centres undefined) | inconclusive: 3.66 µM [cytotoxic, partial curve] | 
CC(C)(C)OC(=O)N(Cc1ccccc1)Cc1ccccc1OCc1ccc(NC(=O)C2CCC2)cc1 | inactive | 
CCn1ccnc1CN(C)Cc1nc(-c2ccc(C(=O)OC)cc2)no1 | inconclusive: 3.26 µM [cytotoxic, partial curve, poor fit] | 
COc1ccccc1CNC(=O)COc1ccc(S(=O)(=O)N2CCCC2)cc1 | inactive | 
CCCCNC(=O)C1(C)CCCCN1Cc1ccccc1-c1ccccc1 (centres undefined) | inconclusive: 23.1 µM [cytotoxic, single point] | 
O=CC1=C(c2ccccc2)Oc2ccccc2O1 | inconclusive: 32.6 µM [cytotoxic, single point] | 
COc1cc(C#N)c(NC(=S)N2CCN(C(=O)c3ccco3)CC2)cc1OC | inactive | 
Cc1ccc(CNC(=O)c2nc(S(=O)(=O)Cc3ccc(C)cc3)ncc2Cl)cc1 | inconclusive: 29.1 µM [cytotoxic, single point] | 
CCOC(=O)N1CCN(C(=O)CNS(=O)(=O)c2c(C)cc(C)cc2C)CC1 | inconclusive: 2.59 µM [cytotoxic, partial curve, poor fit] | 
CC(C)n1ncc2c(C(=O)N3CCN(Cc4ccc(Cl)s4)CC3)cc(C3CC3)nc21 | inconclusive: 29.1 µM [cytotoxic, single point] | 
COc1ccc(/C=C/C(=O)Oc2cccc(/C=N/NC(=O)COc3c(C)cccc3C)c2)cc1 | inconclusive: 23.1 µM [cytotoxic, single point] | 
CCn1c(NC(=O)c2ccc(F)cc2)c2ccccc2nc1=O | inconclusive: 25.9 µM [cytotoxic, partial curve, poor fit] | 

Compound | Potency | activity change, negative = cytotoxic
CCC(=O)N1Cc2cc(C(=O)NCC(F)(F)F)nc(-c3cccc(-c4cncnc4)c3)c2[C@@H]1CCO | inconclusive: 16.4 µM [cytotoxic, single point] | 
CCOCCCNC(=O)c1ccc2c(c1)N(CC)C(=O)c1ccccc1S2=O (centres undefined) | inconclusive: 29.1 µM [cytotoxic, single point] | 
CC(C)S(=O)(=O)c1csc(NC(=O)Nc2ccc(Cl)cc2)c1Cl | inconclusive: 20.6 µM [cytotoxic, single point] | 
COC(=O)[C@]1(CC(C)C)N[C@H](c2ccc(-c3ccc(F)cc3)c(OC)c2)[C@@H]2C(=O)N(C)C(=O)[C@@H]21 | inconclusive: 29.1 µM [cytotoxic, single point] | 
CCSc1ncnc2nc[nH]c12 | inconclusive: 32.6 µM [cytotoxic, single point] | 
CC1(C(=O)NS(=O)(=O)Cc2cccc(Cl)c2)CCN1C(=O)Cc1cccs1 (centres undefined) | inactive | 
NC(=O)c1ccsc1NC(=O)COC(=O)c1ccc(Cl)cc1 |  | inconclusive: 0.102%
Cc1ccccc1OCCn1cc(C(=S)N2CCCC2)c2ccccc21 | inconclusive: 29.1 µM [cytotoxic, single point] | 
CC(C)CCNC(=O)C(=O)Nc1cc2c3c(c1)CC(=O)N3CCC2 | inconclusive: 14.6 µM [rising, partial curve, poor fit] | 
O=C1/C(=C/c2ccncc2)SC(=S)N1Cc1ccccc1 | inconclusive: 29.1 µM [cytotoxic, single point] | 
O=C(NNC(=O)c1cc(-c2ccncc2)nc2ccccc12)c1ccccc1O | inconclusive: 29.1 µM [cytotoxic, single point] | 
N#CCCN(Cc1ccccc1)C(=S)NC(=O)c1ccccc1 | inactive | 
CC(=O)c1ccc(Sc2ccccn2)c([N+](=O)[O-])c1 | inactive | 
Cc1cc2c(cc1C)C(c1cc(Br)ccc1F)CC(=O)N2 (centres undefined) | active: 8.2 µM | 
c1ccc2c(c1)c1ccccc1n1c(-c3ccc4c(c3)OCO4)nnc21 | inconclusive: 18.4 µM [cytotoxic, single point] | 
CC(C)OCCCNc1nc2c(cnn2C)c(=O)[nH]1 | inconclusive: 29.1 µM [cytotoxic, single point] | 
C=CCNC(=S)N/N=C(\C)c1cccnc1 |  | inconclusive: -33.8%
O=C1NCCc2c1[nH]c1ccccc21 | inconclusive: 29.1 µM [cytotoxic, single point] | 
CCOC(=O)c1ccc(N2CCCCC2)c(NS(=O)(=O)c2ccc(C)cc2)c1 | inconclusive: 20.6 µM [cytotoxic, single point] | 
CCOC1=C2CN(S(=O)(=O)c3ccc(C)cc3)[C@H](c3ccccc3)C[C@@H]2N(S(=O)(=O)c2ccc(C)cc2)[C@H](c2ccccc2)C1 | inactive | 
CC(CCc1ccccc1)NC(=O)CN(C)Cc1ccccc1F (centres undefined) | inconclusive: 0.0046 µM [rising, full curve] | 
O=C(Nc1ccccc1Cl)NC1(C(=O)NCc2cccnc2)CCCCC1 | inconclusive: 18.4 µM [rising, single point] | 
Cc1nc(Sc2nnnn2C2CC2)c2c(-c3ccccc3)csc2n1 | inconclusive: 0.651 µM [cytotoxic, full curve, poor fit] | 
